Measurements from publication PMC11574045, “A cofactor-induced repressive type of transcription factor condensation can be induced by synthetic peptides to suppress tumorigenesis” (The EMBO Journal, 2024).
No constants are given. Whether binding was seen depends on the method and setting. Binding seen in cells or lysates may run through a third protein. Here binding means that the protein was enriched with, or labelled near, the bait; the list need not be complete.

Amino acid sequences for entries named in this document (tags omitted).
UniProt Q15561: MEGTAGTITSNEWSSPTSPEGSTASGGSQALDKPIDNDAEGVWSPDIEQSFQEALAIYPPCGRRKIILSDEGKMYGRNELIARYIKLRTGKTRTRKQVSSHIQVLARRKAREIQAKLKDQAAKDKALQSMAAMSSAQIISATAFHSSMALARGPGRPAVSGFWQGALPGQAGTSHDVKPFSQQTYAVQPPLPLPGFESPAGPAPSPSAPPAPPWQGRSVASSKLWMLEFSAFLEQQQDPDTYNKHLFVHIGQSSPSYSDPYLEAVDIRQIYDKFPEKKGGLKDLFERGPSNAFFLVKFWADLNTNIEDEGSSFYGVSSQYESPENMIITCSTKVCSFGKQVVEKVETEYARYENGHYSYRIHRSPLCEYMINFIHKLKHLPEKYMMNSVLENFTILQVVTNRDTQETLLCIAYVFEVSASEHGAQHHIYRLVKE
UniProt O95751: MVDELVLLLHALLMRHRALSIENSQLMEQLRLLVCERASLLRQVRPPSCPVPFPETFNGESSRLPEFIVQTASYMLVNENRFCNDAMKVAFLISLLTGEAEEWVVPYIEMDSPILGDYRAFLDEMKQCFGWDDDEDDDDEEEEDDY
UniProt Q9GZV5: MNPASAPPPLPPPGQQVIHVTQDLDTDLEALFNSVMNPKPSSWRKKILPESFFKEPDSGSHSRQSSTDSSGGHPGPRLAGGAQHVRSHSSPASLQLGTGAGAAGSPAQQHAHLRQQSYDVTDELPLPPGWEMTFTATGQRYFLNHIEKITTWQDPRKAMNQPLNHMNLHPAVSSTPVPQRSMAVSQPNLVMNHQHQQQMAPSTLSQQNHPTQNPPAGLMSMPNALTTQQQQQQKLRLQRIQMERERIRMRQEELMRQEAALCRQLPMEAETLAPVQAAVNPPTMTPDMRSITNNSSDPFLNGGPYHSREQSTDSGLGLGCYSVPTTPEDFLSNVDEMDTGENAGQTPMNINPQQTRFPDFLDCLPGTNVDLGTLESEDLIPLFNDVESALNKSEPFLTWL
UniProt P25490: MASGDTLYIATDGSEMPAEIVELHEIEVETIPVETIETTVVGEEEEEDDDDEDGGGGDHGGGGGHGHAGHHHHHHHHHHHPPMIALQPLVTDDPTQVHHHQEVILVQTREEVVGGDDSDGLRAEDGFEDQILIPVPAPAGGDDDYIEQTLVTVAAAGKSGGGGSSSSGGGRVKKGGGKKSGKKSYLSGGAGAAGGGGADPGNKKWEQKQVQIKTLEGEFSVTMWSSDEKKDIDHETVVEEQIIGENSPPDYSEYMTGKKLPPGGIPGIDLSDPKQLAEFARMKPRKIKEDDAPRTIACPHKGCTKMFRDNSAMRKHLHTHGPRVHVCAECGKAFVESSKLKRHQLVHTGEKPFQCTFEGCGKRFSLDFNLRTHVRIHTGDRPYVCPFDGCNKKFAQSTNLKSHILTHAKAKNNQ

target: BirA-fused TEAD4 (human) (UniProt Q15561); experiment: proximity labelling; BioID: TEAD4-BirA in HEK293FT, in triplicate; biotin 500 μM; NETN lysis with micrococcal nuclease; streptavidin beads; label-free quantitative mass spectrometry

binding, binds:
LDOC1 (from UniProt O95751 1-146), TAZ (from UniProt Q9GZV5 1-400), YY1 (from UniProt P25490 1-414)
